Source: publication doi:10.1101/2023.04.19.537449

The chains behind the UniProt entries cited, without tags or fusion partners. Where a name states a change or a piece, a line headed by the entry shows the natural chain unless it says otherwise.
UniProt Q9Y2J4: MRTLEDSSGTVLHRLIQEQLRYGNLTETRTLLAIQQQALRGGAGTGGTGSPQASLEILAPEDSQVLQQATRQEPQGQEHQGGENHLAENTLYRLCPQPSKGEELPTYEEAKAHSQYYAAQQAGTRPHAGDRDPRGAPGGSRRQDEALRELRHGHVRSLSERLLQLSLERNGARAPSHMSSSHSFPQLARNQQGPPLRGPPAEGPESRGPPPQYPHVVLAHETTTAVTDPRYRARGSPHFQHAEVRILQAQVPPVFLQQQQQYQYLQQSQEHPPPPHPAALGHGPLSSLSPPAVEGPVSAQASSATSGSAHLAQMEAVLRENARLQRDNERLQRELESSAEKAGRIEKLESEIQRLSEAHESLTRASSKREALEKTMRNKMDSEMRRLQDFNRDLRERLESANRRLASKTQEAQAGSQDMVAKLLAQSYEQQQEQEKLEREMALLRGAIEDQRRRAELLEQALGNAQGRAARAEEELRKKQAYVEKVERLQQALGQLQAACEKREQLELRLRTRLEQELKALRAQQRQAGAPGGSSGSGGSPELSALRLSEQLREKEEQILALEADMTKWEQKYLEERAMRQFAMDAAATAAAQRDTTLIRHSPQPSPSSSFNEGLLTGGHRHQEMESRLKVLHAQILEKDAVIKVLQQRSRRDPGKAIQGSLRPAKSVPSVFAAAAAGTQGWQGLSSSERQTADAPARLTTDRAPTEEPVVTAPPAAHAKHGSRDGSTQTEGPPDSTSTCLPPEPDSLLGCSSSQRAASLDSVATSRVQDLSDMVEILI
UniProt P46937: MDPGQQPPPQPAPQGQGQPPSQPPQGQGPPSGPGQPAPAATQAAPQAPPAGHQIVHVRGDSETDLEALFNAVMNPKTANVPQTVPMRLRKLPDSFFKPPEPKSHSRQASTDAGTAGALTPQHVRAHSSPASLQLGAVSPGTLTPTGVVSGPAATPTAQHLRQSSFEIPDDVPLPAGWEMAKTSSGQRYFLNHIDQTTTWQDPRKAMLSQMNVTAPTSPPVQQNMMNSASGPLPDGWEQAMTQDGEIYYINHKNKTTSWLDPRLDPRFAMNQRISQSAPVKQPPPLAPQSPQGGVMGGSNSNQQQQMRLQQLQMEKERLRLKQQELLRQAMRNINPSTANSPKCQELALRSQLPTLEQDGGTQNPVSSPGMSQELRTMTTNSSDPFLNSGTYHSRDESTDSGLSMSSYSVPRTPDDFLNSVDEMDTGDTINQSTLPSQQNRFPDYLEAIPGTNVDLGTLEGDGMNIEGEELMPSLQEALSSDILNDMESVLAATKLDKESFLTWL

Columns and labels:
Experiment in all cases: co-IP; HEK293T cells at high cell density co-expressing FLAG-AMOTL2 forms and HA-YAP; 1 mg lysate (RIPA or nondenaturing lysis buffer: 20 mM Tris, 137 mM NaCl, 0.5% NP-40) with anti-FLAG M2 magnetic beads overnight at 4°C; eluted with FLAG peptide; anti-HA blot
[1] = biological target: FLAG-tagged double exon-skipped AMOTL2 (Δ5Δ9) (UniProt Q9Y2J4)
[2] = biological target: FLAG-tagged exon 5-skipped AMOTL2 (Δ5) (UniProt Q9Y2J4)
[3] = biological target: FLAG-tagged exon 9-skipped AMOTL2 (Δ9) (UniProt Q9Y2J4)

binding [1]: binds
binding [2]: binds
binding [3]: binds
Substance: HA-tagged YAP (Yes-associated protein 1) (from UniProt P46937 1-504)

These are yes or no findings as the source states them, for the method shown. In cells and extracts the contact can be indirect. Binding calls can cover weak binding; strength is not graded here.
